# Experimental data taken from patent publication US6825317B2 (Sumitomo Pharmaceuticals Company, Limited, priority 1999, dated 2004).
# Experiment: general procedure: solution-phase peptide synthesis; BOP/HOBt with Et3N; HATU/DIEA for cyclisation
# Conditions: for cyclisation yield: cyclisation step; for final purity (method not given): HPLC
substance,measurement,setting,value
Cyclo(-L-Asu(OBzl)-Aib-L-Phe-D-Pro-),cyclisation yield,,61%
Boc-L-Asu(OBzl)-Aib-L-Phe-D-Pro-OtBu,step yield,coupling step,72%
cyclo(-L-Asu(OBzl)-D-Cha-L-Ile-D-Pip-),cyclisation yield,,yield 18%
cyclo(-L-Asu(NHOH)-D-Cha-L-Ile-D-Pip-),final purity (method not given),late stage modification step,purity 100%
Cyclo(-L-Asu-Aib-L-Phe-D-Pro-),step yield,late stage modification step,97%
cyclo(-L-Asu(NHOH)-D-Cha-L-Ile-L-Pip-),final purity (method not given),late stage modification step,purity 93%
H-L-Asu(OBzl)-Aib-L-Phe-D-Pro-OH.TFA,step yield,late stage modification step,78%
cyclo(-L-Asu(NHOH)-Aib-L-Phe-D-Pro-),step yield,late stage modification step,74%
cyclo(-L-Asu(OH)-D-Cha-L-Ile-D-Pip-),step yield,late stage modification step,yield 85%
